Data as given in PubChem BioAssay AID1259290 (Sanger Institute, 2017)
Shown is an unselected part of 794 deposited reagents. Over the whole deposit, 9 (1.1%) are marked active. 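Calls rest on knock-down alone, not drug synergy; synergy above 0.15 was grouped apart and does not affect calls.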 No viability above 1 is reported: the scale is capped. Not all columns of the deposit are shown. Not given: the amount of reagent, the time to read-out.

- Assay: 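siRNA screen across the kinome seeking synthetic lethal partners for BYL719, cetuximab or trametinib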 (primary screen)
- Cells: human SNUC1 colorectal cancer cells
- Knock-down reagent: siRNA pool against human genes
- Conditions: anchor drugs BYL719 1 µM, cetuximab 5 µg/ml or trametinib 10 nM, or DMSO vehicle alone
- Measurement: 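Viability averaged over replicates and scaled to non-targeting siRNA, robust z-score with no drug, and synergy scores by drug for BYL719, cetuximab and trametinib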
- Reading the numbers: viability z-score, siRNA alone: higher = more viable cells; low values mean essential gene; viability vs control, siRNA alone: higher = more viable cells; synergy score with BYL719 and synergy score with Cetuximab: higher = stronger synthetic lethal effect with drug
- Active means: 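a knock-down without drug scoring a robust z under -3 counts as essential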
- Calls: active = essential: knock-down alone cut viability (z below -3); inactive = no clear viability loss with knock-down alone

gene,PubChem SID,"viability z-score, siRNA alone","viability vs control, siRNA alone",synergy score with BYL719,synergy score with Cetuximab,Call
CILK1 (ciliogenesis associated kinase 1),SID152149076,0.724,0.981,-0.0849,0.0885,inactive
ADGRL2 (adhesion G protein-coupled receptor L2),SID152152166,-0.73,0.85,-0.247,-0.144,inactive
NUAK1 (NUAK family kinase 1),SID56478923,-0.677,0.855,-0.166,-0.0466,inactive
SIK1 (salt inducible kinase 1),SID152146842,0.306,0.943,-0.157,-0.00169,inactive
CNOT1 (CCR4-NOT transcription complex subunit 1),SID134319414,-1.65,0.767,-0.018,0.146,inactive
FLT4 (fms related receptor tyrosine kinase 4),SID152148537,-1.09,0.818,-0.344,-0.0605,inactive
FXN (frataxin),SID56479078,0.936,1,-0.0239,-0.0447,inactive
LRRK2 (leucine rich repeat kinase 2),SID152152689,0.706,0.979,-0.111,-0.0447,inactive
NPR2 (natriuretic peptide receptor 2),SID152151652,0.0842,0.923,-0.149,0.0124,inactive
IRAK2 (interleukin 1 receptor associated kinase 2),SID152151590,0.131,0.927,-0.127,-0.114,inactive
PRKD3 (protein kinase D3),SID56478959,-0.791,0.844,0.0278,-0.0506,inactive
RIPK1 (receptor interacting serine/threonine kinase 1),SID152148235,-0.794,0.844,-0.0819,-0.0173,inactive
PRKAG3 (protein kinase AMP-activated non-catalytic subunit gamma 3),SID56479232,-1.4,0.789,-0.0497,0.0434,inactive
STK16 (serine/threonine kinase 16),SID152154415,0.68,0.977,-0.0523,0.0583,inactive
CDK14 (cyclin dependent kinase 14),SID56478888,0.879,0.995,-0.115,0.185,inactive
CDK6 (cyclin dependent kinase 6),SID56478600,0.444,0.956,0.0554,-0.0546,inactive
INSRR (insulin receptor related receptor),SID56479015,-0.22,0.896,-0.236,0.0263,inactive
STK32A (serine/threonine kinase 32A),SID152151517,0.936,1,-0.198,-0.0447,inactive
IPPK (inositol-pentakisphosphate 2-kinase),SID152153893,-0.353,0.884,-0.109,-0.0284,inactive
CDC42BPB (CDC42 binding protein kinase beta),SID152149037,-0.341,0.885,-0.29,-0.0503,inactive
MAP3K8 (mitogen-activated protein kinase kinase kinase 8),SID56478664,0.936,1,-0.108,-0.032,inactive
HSPB8 (heat shock protein family B (small) member 8),SID56478941,0.875,0.995,0.0158,-0.05,inactive
TRIB1 (tribbles pseudokinase 1),SID56478720,0.936,1,-0.0874,-0.0447,inactive
AAK1 (AP2 associated kinase 1),SID152151067,0.558,0.966,-0.108,0.0604,inactive
GUK1 (guanylate kinase 1),SID152156775,-1.9,0.745,0.00515,0.0251,inactive
PKIB (cAMP-dependent protein kinase inhibitor beta),SID56479212,-1.03,0.823,-0.278,-0.0921,inactive
PNCK (pregnancy up-regulated nonubiquitous CaM kinase),SID152151558,0.936,1,-0.0958,-0.0447,inactive
"ARAF (A-Raf proto-oncogene, serine/threonine kinase)",SID152151166,-0.864,0.838,-0.184,-0.0904,inactive
TAF1 (TATA-box binding protein associated factor 1),SID56478970,-0.476,0.873,-0.251,0.0176,inactive
MAP4K2 (mitogen-activated protein kinase kinase kinase kinase 2),SID56478700,-1.72,0.76,-0.234,-0.0235,inactive
PRKG1 (protein kinase cGMP-dependent 1),SID152152064,-0.667,0.856,-0.0657,0.0604,inactive
CALM2 (calmodulin 2),SID134320655,0.936,1,-0.0525,0.0192,inactive
PAK4 (p21 (RAC1) activated kinase 4),SID152147637,0.294,0.942,-0.197,0.0167,inactive
"BRAF (B-Raf proto-oncogene, serine/threonine kinase)",SID152153735,0.936,1,-0.0531,-0.0422,inactive
CDC73 (cell division cycle 73),SID134319235,0.936,1,-0.103,-0.0447,inactive
NRBP1 (nuclear receptor binding protein 1),SID135620974,0.239,0.937,-0.0907,0.0216,inactive
PDGFRB (platelet derived growth factor receptor beta),SID152152554,-0.746,0.849,-0.291,-0.0492,inactive
STRADB (STE20 related adaptor beta),SID135620967,0.936,1,-0.198,-0.0255,inactive
AKT2 (AKT serine/threonine kinase 2),SID135620600,-0.392,0.88,-0.075,0.00766,inactive
RPS6KA2 (ribosomal protein S6 kinase A2),SID135620862,0.147,0.929,-0.0562,0.0249,inactive
CAMKK2 (calcium/calmodulin dependent protein kinase kinase 2),SID135620895,0.936,1,-0.195,-0.0238,inactive
IKBKE (inhibitor of nuclear factor kappa B kinase subunit epsilon),SID56478721,-0.0583,0.91,-0.0198,0.0459,inactive
CDK8 (cyclin dependent kinase 8),SID56478602,0.936,1,-0.198,-0.0447,inactive
MLKL (mixed lineage kinase domain like pseudokinase),SID56479010,0.525,0.963,-0.109,0.197,inactive
ROCK2 (Rho associated coiled-coil containing protein kinase 2),SID135620850,0.683,0.977,-0.0269,0.0234,inactive
"PKMYT1 (protein kinase, membrane associated tyrosine/threonine 1)",SID56478956,-0.0937,0.907,-0.034,0.0151,inactive
"YES1 (YES proto-oncogene 1, Src family tyrosine kinase)",SID152156078,-0.611,0.861,-0.116,-0.0283,inactive
PACSIN1 (protein kinase C and casein kinase substrate in neurons 1),SID56479194,-0.0327,0.913,-0.12,0.0617,inactive
PRPS1L1 (phosphoribosyl pyrophosphate synthetase 1 like 1),SID56479159,0.731,0.982,-0.118,-0.0299,inactive
LATS2 (large tumor suppressor kinase 2),SID152149461,-0.941,0.831,-0.219,-0.103,inactive

Only “synergy score with BYL719”, for 6 of the entries above:
NPR2 (natriuretic peptide receptor 2) [SID152151652] = -0.149
IRAK2 (interleukin 1 receptor associated kinase 2) [SID152151590] = -0.127
PRKD3 (protein kinase D3) [SID56478959] = 0.0278
RIPK1 (receptor interacting serine/threonine kinase 1) [SID152148235] = -0.0819
PRKAG3 (protein kinase AMP-activated non-catalytic subunit gamma 3) [SID56479232] = -0.0497
STK16 (serine/threonine kinase 16) [SID152154415] = -0.0523
